Results published in patent US20050214219A1, “24p3 receptors and uses thereof” (priority 2003, published 2005).
No constants are given. Whether binding was seen depends on the method and setting. Some entries that bind do so weakly or less than the wild type. Where a sequence is shown, tags or fusion partners need not be part of it.

Biological target: T1, recombinant N-terminal epitope-tagged 24p3R-L stably expressed on HeLa cells (HeLa/24p3R-L) (murine)
T1 sequence: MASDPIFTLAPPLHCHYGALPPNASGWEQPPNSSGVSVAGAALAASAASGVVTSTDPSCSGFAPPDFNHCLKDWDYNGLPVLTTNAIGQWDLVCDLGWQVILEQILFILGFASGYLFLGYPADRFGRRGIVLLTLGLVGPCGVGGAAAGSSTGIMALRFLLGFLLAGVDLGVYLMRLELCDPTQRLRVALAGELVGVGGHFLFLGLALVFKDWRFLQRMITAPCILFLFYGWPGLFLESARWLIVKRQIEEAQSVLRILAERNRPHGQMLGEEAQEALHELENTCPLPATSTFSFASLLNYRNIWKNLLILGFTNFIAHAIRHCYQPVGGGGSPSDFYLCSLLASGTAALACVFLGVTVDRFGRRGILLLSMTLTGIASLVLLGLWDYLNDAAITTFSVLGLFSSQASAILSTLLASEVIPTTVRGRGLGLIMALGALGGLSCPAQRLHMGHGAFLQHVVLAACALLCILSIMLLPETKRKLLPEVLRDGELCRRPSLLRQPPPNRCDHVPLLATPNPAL
Experiment: ligand-cell binding, radiolabeled ligand on stably transfected HeLa cells

- binding: binds
B1: 32P-labeled 24p3 (recombinant 24p3) (ligand, mouse, UniProt P11672 21-200, looked up)
chain: QDSTQNLIPAPSLLTVPLQPDFRSDQFRGRWYVVGLAGNAVQKKTEGSFTMYSTIYELQENNSYNVTSILVRDQDQGCRYWIRTFVPSSRAGQFTLGNMHRYPQVQSYNVQVATTDYNQFAMVFFRKTSENKQYFKITLYGRTKELSPELKERFTRFAKSLGLKDDNIIFSVPTDQCIDN
modifications: 32P-labeled (position not given)
